Data on six molecules can be found in publication doi:10.1101/2024.08.31.610651.

Protein sequences, listed by entry. Tags and fused reporters are not part of them. Residues count along the entry.
UniProt O00206, residues 24-839: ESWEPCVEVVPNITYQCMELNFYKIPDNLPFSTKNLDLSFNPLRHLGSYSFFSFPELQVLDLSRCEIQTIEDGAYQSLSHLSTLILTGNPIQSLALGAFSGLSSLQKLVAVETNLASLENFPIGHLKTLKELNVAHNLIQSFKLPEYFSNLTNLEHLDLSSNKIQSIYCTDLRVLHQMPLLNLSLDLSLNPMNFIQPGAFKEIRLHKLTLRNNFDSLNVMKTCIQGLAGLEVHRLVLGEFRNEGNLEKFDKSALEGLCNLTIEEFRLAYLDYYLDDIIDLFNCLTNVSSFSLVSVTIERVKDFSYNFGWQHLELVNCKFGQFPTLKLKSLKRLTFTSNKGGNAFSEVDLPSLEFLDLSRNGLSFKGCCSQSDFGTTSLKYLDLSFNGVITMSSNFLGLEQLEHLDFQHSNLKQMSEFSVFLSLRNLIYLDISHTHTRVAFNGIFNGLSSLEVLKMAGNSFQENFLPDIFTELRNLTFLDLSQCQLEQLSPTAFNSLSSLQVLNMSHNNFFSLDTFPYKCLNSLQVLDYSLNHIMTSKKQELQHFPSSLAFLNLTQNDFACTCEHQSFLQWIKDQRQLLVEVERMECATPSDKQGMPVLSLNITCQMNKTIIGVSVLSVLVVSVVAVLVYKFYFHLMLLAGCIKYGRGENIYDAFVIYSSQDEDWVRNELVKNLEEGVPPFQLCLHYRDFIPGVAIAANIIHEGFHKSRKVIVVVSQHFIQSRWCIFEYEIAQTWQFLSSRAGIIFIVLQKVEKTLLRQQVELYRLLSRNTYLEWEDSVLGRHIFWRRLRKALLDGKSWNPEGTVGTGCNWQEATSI
UniProt Q9BYM8: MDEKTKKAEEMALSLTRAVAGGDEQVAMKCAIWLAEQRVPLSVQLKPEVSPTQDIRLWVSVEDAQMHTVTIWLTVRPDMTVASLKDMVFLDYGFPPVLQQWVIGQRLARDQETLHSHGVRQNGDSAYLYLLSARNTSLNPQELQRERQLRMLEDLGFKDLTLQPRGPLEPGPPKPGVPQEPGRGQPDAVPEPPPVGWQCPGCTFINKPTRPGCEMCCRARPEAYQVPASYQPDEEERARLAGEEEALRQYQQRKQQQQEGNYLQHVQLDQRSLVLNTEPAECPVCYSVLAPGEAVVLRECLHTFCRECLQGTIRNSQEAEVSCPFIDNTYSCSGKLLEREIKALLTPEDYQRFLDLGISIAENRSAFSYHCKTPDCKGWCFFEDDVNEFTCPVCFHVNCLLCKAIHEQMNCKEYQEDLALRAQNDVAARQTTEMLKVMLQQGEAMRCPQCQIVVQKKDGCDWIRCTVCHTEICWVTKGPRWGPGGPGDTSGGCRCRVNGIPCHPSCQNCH
UniProt Q13489: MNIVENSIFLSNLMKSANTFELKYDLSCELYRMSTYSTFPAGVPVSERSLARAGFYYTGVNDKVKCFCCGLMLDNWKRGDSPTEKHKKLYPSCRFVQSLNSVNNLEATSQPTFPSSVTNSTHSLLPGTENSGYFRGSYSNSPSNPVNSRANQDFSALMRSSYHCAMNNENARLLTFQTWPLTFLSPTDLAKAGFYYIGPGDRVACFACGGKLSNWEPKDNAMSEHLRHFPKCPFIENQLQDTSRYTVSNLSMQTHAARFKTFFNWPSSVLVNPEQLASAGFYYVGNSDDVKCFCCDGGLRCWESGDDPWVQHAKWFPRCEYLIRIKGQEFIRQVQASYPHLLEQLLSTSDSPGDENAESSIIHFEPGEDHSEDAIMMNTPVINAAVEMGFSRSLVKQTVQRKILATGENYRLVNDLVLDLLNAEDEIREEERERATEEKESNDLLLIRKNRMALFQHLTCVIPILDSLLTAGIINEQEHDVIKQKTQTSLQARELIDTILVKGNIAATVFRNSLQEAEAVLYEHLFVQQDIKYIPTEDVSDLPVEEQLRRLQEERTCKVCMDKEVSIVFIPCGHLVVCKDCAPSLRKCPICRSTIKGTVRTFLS
UniProt O08863: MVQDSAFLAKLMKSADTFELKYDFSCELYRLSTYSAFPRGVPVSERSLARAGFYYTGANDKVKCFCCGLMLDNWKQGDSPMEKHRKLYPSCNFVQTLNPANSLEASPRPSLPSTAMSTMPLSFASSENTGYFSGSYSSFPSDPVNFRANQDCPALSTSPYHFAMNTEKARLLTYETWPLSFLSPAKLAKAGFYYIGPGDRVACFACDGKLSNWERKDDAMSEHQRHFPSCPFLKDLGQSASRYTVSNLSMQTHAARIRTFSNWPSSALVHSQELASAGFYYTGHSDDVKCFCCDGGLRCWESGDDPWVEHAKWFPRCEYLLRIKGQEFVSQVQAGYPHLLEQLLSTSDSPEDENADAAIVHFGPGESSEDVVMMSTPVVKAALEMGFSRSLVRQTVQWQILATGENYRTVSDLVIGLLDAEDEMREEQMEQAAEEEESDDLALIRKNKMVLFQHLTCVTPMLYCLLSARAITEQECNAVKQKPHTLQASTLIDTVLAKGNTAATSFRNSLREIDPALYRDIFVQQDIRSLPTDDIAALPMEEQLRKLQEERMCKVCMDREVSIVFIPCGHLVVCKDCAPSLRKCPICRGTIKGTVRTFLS

Changes are numbered by the printed parent chain. Read-outs that look alike come from different tables or passages of the source. These are yes or no findings as the source states them, for the method shown. In cells and extracts the contact can be indirect. Some results given as binding are weak or reduced against the parent protein; the word gives no strength. For some assays here: Tags and fused reporters may be left off the sequences shown.

Common to all, as to assay: co-IP
The target of assay [1] is T1, TRAF1 E207A, overexpressed (human) (UniProt Q13077).
T1 sequence: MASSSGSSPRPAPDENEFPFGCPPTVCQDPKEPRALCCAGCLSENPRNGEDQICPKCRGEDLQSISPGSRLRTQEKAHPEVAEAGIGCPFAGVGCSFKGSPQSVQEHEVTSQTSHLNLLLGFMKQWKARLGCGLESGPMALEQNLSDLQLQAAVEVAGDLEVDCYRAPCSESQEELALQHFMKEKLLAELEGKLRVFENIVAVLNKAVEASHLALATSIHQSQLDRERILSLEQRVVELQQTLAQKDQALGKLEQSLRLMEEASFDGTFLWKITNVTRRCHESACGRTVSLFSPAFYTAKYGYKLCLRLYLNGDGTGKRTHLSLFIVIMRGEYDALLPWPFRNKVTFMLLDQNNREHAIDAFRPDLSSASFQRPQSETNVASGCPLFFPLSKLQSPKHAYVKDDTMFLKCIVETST

For assay [2], the target named is T2, TRAF1 (tumor necrosis factor receptor-associated factor 1), wildtype, overexpressed (human) (UniProt Q13077).
T2 sequence: T1 sequence with A207E

The target of assay [3] is T3, TRAF1 V203A, overexpressed (human) (UniProt Q13077).
T3 sequence: T1 sequence with V203A, A207E

For assay [4], the target named is T4, TRAF1 E209A, overexpressed (human) (UniProt Q13077).
T4 sequence: T1 sequence with A207E, E209A

Assay [5] deals with T5, TRAF1, endogenous, wildtype THP-1 cells (human (endogenous in THP-1)) (UniProt Q13077).
T5 sequence: T1 sequence with A207E

Assay [6] concerns the target T6, TRAF1 V203A, endogenous locus mutated in THP-1 cells (human (endogenous in THP-1)) (UniProt Q13077).
T6 sequence: T1 sequence with V203A, A207E

The target of assay [7] is T7, mouse TRAF1-Flag V196A (mouse) (UniProt P39428).
T7 sequence: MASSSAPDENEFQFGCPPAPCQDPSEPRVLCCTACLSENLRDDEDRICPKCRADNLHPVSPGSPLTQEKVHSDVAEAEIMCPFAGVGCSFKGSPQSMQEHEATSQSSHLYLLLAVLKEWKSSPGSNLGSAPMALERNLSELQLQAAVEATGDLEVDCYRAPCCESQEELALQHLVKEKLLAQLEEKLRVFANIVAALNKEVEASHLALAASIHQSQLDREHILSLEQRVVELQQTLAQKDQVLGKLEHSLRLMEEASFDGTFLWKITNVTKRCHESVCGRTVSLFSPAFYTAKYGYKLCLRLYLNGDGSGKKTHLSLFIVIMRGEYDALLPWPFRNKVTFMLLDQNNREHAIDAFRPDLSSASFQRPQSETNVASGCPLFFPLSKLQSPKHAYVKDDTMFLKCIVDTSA

Assay [8] has as its target T8, mouse TRAF1-Flag V196E (mouse) (UniProt P39428).
T8 sequence: T7 sequence with A196E

Assay [9] concerns the target T9, mouse TRAF1-Flag, wildtype (mouse) (UniProt P39428).
T9 sequence: T7 sequence with A196V

Assay [10] deals with T7, mouse TRAF1-Flag V196A (mouse). The source holds these as a separate data set.
The target of assay [11] is T8, mouse TRAF1-Flag V196E (mouse). This is another data set of the same source.
Assay [12] concerns the target T9, mouse TRAF1-Flag, wildtype (mouse). This is another data set of the same source.
In assay [13] the target is TLR4, endogenous, THP-1 cells (human (endogenous in THP-1)) (UniProt O00206).

On to “HOIL-1, overexpressed with human TRAF1 constructs (from UniProt Q9BYM8 1-510)”, for which the binding entry in assay [1], in assay [2] and in assay [3] was “binds” in each case.

“cIAP2 (cellular inhibitor of apoptosis 2), overexpressed (from UniProt Q13489 1-604)”: the binding result in assay [2] and in [4] was “binds” in each case.

Take “cIAP2, endogenous, THP-1 cells (from UniProt Q13489 1-604)”: the binding entry in [5] was “binds”; in [6], “no binding”.

With “mouse cIAP2-Flag-Myc (from UniProt O08863 1-600)”, the figures for the binding result in assay [7], in assay [8] and in assay [9] were “no binding”, “no binding” and “binds”, respectively.

B1: HOIL-1, co-expressed with mouse TRAF1 constructs (protein, UniProt Q9WUB0 1-508)
chain: MDEKTKKAEEMALSLARAVAGGDEQAAIKYATWLAEQRVPLRVQVKPEVSPTQDIRLCVSVEDAYMHTVTIWLTVRPDMTVASLKDMVFLDYGFPPSLQQWVVGQRLARDQETLHSHGIRRNGDGAYLYLLSARNTSLNPQELQRQRQLRMLEDLGFKDLTLQSRGPLEPVLPKPRTNQEPGQPDAAPESPPVGWQCPGCTFINKPTRPGCEMCCRARPETYQIPASYQPDEEERARLAGEEEALRQYQQRKQQQQEGNYLQHVQLEQRSLVLNTEPTECPVCYSVLAPGEAVVLRECLHTFCRECLQGTIRNSQEAEVACPFIDSTYSCPGKLLEREIRALLSPEDYQRFLDLGVSIAENRSTLSYHCKTPDCRGWCFFEDDVNEFTCPVCTRVNCLLCKAIHEHMNCREYQDDLALRAQNDVAARQTTEMLKVMLQQGEAMHCPQCRIVVQKKDGCDWIRCTVCHTEICWVTKGPRWGPGGPGDTSGGCRCRVNGIPCHPSCQNCH
Turning to B1, the binding result in assay [10], in assay [11] and in assay [12] was “binds” in each case.

B2: TRAF1, endogenous, wildtype THP-1 cells (protein, UniProt Q13077 1-416)
chain: T1 sequence with A207E
For the molecule B2, the binding entry in assay [13] is “binds”.
